Laboratory results from the supplement of paper PMC4635364.
Counter-ions that a name gives are not always drawn. Some of the results follow. Single values are uncertain here, since repeats match poorly.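 ReNCell VM, a human fetal ventral-midbrain neural progenitor line, was differentiated without mitogens. Blinded raters scored images stained for doublecortin (early neurons) or tyrosine hydroxylase (dopaminergic neurons) against untreated wells (0 = no change). Scores were averaged across repeats and both raters, and compounds averaging 2 or more were selected as hits for retesting.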

Tested on: ReNCell VM
Test: neuronal differentiation score (DCX+ cell fraction vs untreated, manual image score) (score (-3 to 3)); higher = more neuronal differentiation
Conditions: library: Tocriscreen; 2 uM; 2 weeks

Neuronal differentiation score, inactive:
CC1CCN=C(N)S1 (stereo not given) [AMT hydrochloride] 0
N[C@@H](CSC(c1ccccc1)(c1ccccc1)c1ccccc1)C(=O)O [S-Trityl-L-cysteine] 0
C=CCNC(=O)c1cc([N+](=O)[O-])cc2c(=O)[nH]c(Nc3ccc(Cl)c(Cl)c3)nc12 0

Tested on: ReNCell VM
Test: dopaminergic neuron differentiation score (TH+ cell fraction vs untreated, manual image score) (score (0 to 3)); higher = more TH+ dopaminergic neuron differentiation
Conditions: library: LOPAC; 2 uM; 4 weeks; BDNF 10 ng/ml + GDNF 10 ng/ml

Dopaminergic neuron differentiation score, inactive:
CC1=C(CC(=O)O)c2cc(F)ccc2/C1=C\c1ccc(S(C)(=O)=O)cc1 [Sulindac sulfone] 0
COc1ccccc1N1CCN(CCCNc2c(C)c(=O)n(C)c(=O)n2C)CC1 [Urapidil, 5-Methyl-] 0
CCCCOC(=O)NS(=O)(=O)c1sc(CC(C)C)cc1-c1ccc(Cn2c(CC)nc3c(C)cc(C)nc32)cc1 0
CC1CNCCN1S(=O)(=O)c1cccc2cnccc12 (stereo not given) 0
COc1ccc(CCNC[C@@H](O)c2ccc(O)cc2)cc1OC [R(-)-Denopamine] 0
CCC(=O)N1CCN(C(=O)c2ccccc2)CC1 0
CN1CCc2cc(O)c(O)cc2C(c2ccccc2)C1 (stereo not given) 0

Not a retest: 3 of the compounds above.
Dopaminergic neuron differentiation score, inactive:
CCCCOC(=O)NS(=O)(=O)c1sc(CC(C)C)cc1-c1ccc(Cn2c(CC)nc3c(C)cc(C)nc32)cc1 0
CC1CNCCN1S(=O)(=O)c1cccc2cnccc12 (stereo not given) 0
COc1ccc(CCNC[C@@H](O)c2ccc(O)cc2)cc1OC [R(-)-Denopamine] 0
